The target of experiment [1] is MV-C fused downstream of the Nluc2 fragment of Nanoluciferase (pSNL-N2-C) (Measles virus). Nature of the experiment: split reporter.
Experiment [2] has as its target MV-C tagged N-terminally with Nano-Luciferase (Nluc-C) (Measles virus, Schwarz vaccine strain). The experiment can be described thus: FRET or BRET. In general terms: BRET reads energy transfer from a luciferase to a nearby fluorophore.
The target of experiment [3] is MV-C tagged C-terminally with Nano-Luciferase (C-Nluc) (Measles virus, Schwarz vaccine strain). Nature of the experiment: FRET or BRET.

Data on two molecules can be found in article doi:10.1101/2020.05.08.084418.

These are yes or no findings as the source states them, for the method shown. In cells and extracts the contact can be indirect. A result given as binding can be weak or reduced; the word gives no strength. Tags and fused reporters may be left off the sequences shown.

B1: iASPP fused downstream of the Nluc1 fragment of Nanoluciferase (pSNL-N1) (protein, UniProt Q8WUF5 1-828)
chain: MDSEAFQSARDFLDMNFQSLAMKHMDLKQMELDTAAAKVDELTKQLESLWSDSPAPPGPQAGPPSRPPRYSSSSIPEPFGSRGSPRKAATDGADTPFGRSESAPTLHPYSPLSPKGRPSSPRTPLYLQPDAYGSLDRATSPRPRAFDGAGSSLGRAPSPRPGPGPLRQQGPPTPFDFLGRAGSPRGSPLAEGPQAFFPERGPSPRPPATAYDAPASAFGSSLLGSGGSAFAPPLRAQDDLTLRRRPPKAWNESDLDVAYEKKPSQTASYERLDVFARPASPSLQLLPWRESSLDGLGGTGKDNLTSATLPRNYKVSPLASDRRSDAGSYRRSLGSAGPSGTLPRSWQPVSRIPMPPSSPQPRGAPRQRPIPLSMIFKLQNAFWEHGASRAMLPGSPLFTRAPPPKLQPQPQPQPQPQSQPQPQLPPQPQTQPQTPTPAPQHPQQTWPPVNEGPPKPPTELEPEPEIEGLLTPVLEAGDVDEGPVARPLSPTRLQPALPPEAQSVPELEEVARVLAEIPRPLKRRGSMEQAPAVALPPTHKKQYQQIISRLFHRHGGPGPGGPEPELSPITEGSEARAGPPAPAPPAPIPPPAPSQSSPPEQPQSMEMRSVLRKAGSPRKARRARLNPLVLLLDAALTGELEVVQQAVKEMNDPSQPNEEGITALHNAICGANYSIVDFLITAGANVNSPDSHGWTPLHCAASCNDTVICMALVQHGAAIFATTLSDGATAFEKCDPYREGYADCATYLADVEQSMGLMNSGAVYALWDYSAEFGDELSFREGESVTVLRRDGPEETDWWWAALHGQEGYVPRNYFGLFPRVKPQRSKV
For the molecule B1, in experiment [1], the binding entry was “binds”.

B2: iASPP fused to EYFP (iASPP-YFP) (protein, UniProt Q8WUF5 1-828)
chain: MDSEAFQSARDFLDMNFQSLAMKHMDLKQMELDTAAAKVDELTKQLESLWSDSPAPPGPQAGPPSRPPRYSSSSIPEPFGSRGSPRKAATDGADTPFGRSESAPTLHPYSPLSPKGRPSSPRTPLYLQPDAYGSLDRATSPRPRAFDGAGSSLGRAPSPRPGPGPLRQQGPPTPFDFLGRAGSPRGSPLAEGPQAFFPERGPSPRPPATAYDAPASAFGSSLLGSGGSAFAPPLRAQDDLTLRRRPPKAWNESDLDVAYEKKPSQTASYERLDVFARPASPSLQLLPWRESSLDGLGGTGKDNLTSATLPRNYKVSPLASDRRSDAGSYRRSLGSAGPSGTLPRSWQPVSRIPMPPSSPQPRGAPRQRPIPLSMIFKLQNAFWEHGASRAMLPGSPLFTRAPPPKLQPQPQPQPQPQSQPQPQLPPQPQTQPQTPTPAPQHPQQTWPPVNEGPPKPPTELEPEPEIEGLLTPVLEAGDVDEGPVARPLSPTRLQPALPPEAQSVPELEEVARVLAEIPRPLKRRGSMEQAPAVALPPTHKKQYQQIISRLFHRHGGPGPGGPEPELSPITEGSEARAGPPAPAPPAPIPPPAPSQSSPPEQPQSMEMRSVLRKAGSPRKARRARLNPLVLLLDAALTGELEVVQQAVKEMNDPSQPNEEGITALHNAICGANYSIVDFLITAGANVNSPDSHGWTPLHCAASCNDTVICMALVQHGAAIFATTLSDGATAFEKCDPYREGYADCATYLADVEQSMGLMNSGAVYALWDYSAEFGDELSFREGESVTVLRRDGPEETDWWWAALHGQEGYVPRNYFGLFPRVKPQRSKV
As to B2, the binding result in experiment [2] and in experiment [3] was “binds” each time.
